Assay results taken from the supplement of paper PMC12819154, “High-throughput peptide-centric local stability assay extends protein–ligand identification to membrane proteins, tissues and bacteria” (Nature Structural & Molecular Biology, 2025).
This is one part of the list. Most entries show no effect beyond the scatter of the controls.

The chains behind the UniProt entries cited, without tags or fusion partners. Where a name states a change or a piece, a line headed by the entry shows the natural chain unless it says otherwise.
UniProt Q9Y5B0: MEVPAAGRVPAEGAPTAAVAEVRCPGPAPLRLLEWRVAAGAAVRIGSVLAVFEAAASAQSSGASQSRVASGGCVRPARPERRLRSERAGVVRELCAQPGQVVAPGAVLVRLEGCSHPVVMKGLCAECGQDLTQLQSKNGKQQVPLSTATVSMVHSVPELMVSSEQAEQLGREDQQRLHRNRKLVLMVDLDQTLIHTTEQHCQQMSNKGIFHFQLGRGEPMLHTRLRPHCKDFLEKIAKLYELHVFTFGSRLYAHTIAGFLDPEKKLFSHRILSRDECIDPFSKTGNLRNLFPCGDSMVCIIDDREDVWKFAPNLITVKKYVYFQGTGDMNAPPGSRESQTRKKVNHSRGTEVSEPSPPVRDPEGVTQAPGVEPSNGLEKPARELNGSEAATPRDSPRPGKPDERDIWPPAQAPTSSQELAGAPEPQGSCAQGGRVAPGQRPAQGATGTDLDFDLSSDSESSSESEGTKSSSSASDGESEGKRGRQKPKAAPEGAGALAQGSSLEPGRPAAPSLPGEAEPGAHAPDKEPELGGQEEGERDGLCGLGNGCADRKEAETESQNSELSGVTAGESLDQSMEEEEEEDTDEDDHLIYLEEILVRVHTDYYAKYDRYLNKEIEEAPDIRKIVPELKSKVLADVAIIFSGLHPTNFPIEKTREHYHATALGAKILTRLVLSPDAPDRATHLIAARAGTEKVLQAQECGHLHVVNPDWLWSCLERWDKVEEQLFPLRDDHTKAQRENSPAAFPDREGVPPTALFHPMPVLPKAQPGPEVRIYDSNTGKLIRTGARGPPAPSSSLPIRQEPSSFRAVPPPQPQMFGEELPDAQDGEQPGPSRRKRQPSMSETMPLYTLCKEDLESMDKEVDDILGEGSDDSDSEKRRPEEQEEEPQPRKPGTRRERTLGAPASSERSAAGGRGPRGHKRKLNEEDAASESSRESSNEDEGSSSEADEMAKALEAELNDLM
UniProt Q9Y3A2: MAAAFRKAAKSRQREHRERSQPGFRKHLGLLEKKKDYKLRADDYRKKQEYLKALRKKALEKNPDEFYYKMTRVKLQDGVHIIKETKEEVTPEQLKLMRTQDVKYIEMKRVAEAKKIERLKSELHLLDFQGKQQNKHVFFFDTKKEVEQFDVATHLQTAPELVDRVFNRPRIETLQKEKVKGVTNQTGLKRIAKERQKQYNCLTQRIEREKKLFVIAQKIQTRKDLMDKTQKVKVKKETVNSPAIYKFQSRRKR
UniProt Q9Y5B6: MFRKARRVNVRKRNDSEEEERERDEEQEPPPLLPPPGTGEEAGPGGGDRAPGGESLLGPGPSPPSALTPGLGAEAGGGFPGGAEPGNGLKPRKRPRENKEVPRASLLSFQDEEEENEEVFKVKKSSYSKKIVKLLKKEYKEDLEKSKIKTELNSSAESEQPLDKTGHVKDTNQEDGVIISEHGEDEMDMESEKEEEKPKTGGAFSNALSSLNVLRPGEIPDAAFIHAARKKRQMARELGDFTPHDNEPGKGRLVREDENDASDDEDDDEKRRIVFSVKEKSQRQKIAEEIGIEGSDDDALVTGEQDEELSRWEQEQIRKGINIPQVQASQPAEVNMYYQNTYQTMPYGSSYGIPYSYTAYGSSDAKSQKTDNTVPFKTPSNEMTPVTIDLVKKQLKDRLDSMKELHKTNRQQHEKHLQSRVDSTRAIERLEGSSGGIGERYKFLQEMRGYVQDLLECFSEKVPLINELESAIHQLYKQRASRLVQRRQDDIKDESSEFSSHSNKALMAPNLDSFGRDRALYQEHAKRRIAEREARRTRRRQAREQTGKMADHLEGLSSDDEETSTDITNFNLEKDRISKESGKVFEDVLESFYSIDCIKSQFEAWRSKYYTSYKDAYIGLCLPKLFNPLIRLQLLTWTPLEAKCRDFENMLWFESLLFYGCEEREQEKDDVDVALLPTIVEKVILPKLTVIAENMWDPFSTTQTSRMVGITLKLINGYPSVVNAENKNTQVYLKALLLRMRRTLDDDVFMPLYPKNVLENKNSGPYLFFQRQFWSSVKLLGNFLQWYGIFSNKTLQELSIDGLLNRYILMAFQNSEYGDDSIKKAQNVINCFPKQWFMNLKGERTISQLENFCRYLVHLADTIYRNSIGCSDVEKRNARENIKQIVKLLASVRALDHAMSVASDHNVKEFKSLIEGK
UniProt Q9Y664: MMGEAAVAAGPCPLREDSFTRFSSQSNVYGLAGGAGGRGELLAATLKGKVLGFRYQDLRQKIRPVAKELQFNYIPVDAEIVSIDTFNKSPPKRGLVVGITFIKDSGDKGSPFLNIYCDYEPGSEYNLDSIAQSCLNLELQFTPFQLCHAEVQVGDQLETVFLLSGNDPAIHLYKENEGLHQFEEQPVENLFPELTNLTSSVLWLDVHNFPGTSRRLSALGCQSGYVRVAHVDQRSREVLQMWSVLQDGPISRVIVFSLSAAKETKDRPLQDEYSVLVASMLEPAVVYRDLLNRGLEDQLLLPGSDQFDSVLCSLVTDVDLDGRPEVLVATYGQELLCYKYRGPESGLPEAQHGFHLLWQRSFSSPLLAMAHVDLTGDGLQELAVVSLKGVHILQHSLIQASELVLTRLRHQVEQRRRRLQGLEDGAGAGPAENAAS
UniProt Q9Y3C0: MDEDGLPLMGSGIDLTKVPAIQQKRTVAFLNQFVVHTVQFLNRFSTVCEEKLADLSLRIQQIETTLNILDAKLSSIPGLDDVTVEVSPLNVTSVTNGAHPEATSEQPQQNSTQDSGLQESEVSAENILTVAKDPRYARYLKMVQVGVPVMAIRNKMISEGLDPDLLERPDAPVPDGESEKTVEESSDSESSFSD
UniProt Q9Y265, whole entry: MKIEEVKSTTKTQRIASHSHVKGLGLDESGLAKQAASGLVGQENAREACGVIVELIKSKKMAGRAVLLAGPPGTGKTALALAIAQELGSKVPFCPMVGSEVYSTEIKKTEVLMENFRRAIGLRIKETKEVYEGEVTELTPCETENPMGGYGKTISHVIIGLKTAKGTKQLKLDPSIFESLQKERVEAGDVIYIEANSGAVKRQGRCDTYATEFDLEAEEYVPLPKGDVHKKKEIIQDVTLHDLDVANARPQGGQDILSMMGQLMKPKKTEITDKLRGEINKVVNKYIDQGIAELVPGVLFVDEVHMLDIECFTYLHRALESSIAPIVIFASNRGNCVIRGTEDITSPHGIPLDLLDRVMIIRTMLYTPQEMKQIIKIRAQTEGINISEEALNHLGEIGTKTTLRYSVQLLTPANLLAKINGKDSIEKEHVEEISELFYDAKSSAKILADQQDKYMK
UniProt Q9Y573: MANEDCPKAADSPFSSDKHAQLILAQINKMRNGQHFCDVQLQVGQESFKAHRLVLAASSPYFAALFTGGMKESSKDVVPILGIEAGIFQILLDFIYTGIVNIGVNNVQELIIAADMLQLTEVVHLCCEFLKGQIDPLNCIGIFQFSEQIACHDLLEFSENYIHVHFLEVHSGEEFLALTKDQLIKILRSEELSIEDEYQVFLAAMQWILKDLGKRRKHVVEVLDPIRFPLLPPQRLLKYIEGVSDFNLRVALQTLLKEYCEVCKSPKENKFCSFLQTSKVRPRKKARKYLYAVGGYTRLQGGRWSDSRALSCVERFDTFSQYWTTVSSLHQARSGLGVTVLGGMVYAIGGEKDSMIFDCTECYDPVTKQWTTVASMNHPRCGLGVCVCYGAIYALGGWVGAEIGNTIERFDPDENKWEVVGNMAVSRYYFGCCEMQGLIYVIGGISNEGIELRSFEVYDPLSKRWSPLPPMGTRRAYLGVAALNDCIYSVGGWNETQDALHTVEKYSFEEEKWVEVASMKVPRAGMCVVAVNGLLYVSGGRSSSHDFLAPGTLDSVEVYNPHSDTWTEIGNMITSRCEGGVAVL
UniProt Q9Y6J8: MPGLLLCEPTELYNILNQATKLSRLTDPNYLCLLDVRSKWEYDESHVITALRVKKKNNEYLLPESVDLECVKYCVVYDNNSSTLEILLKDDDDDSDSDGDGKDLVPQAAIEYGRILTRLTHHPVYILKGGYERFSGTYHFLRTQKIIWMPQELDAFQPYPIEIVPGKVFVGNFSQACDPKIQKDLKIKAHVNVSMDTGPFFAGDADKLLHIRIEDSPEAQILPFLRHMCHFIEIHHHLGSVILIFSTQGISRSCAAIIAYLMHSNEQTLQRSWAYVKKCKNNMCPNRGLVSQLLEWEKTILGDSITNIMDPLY
UniProt Q9Y6H3: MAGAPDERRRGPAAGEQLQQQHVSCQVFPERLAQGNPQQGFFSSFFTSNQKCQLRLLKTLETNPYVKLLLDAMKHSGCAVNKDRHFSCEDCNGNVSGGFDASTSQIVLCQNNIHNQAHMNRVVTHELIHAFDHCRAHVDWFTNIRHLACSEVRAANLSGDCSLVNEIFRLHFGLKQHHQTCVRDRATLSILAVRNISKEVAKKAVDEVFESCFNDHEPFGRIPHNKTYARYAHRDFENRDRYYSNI
UniProt Q9Y4K3: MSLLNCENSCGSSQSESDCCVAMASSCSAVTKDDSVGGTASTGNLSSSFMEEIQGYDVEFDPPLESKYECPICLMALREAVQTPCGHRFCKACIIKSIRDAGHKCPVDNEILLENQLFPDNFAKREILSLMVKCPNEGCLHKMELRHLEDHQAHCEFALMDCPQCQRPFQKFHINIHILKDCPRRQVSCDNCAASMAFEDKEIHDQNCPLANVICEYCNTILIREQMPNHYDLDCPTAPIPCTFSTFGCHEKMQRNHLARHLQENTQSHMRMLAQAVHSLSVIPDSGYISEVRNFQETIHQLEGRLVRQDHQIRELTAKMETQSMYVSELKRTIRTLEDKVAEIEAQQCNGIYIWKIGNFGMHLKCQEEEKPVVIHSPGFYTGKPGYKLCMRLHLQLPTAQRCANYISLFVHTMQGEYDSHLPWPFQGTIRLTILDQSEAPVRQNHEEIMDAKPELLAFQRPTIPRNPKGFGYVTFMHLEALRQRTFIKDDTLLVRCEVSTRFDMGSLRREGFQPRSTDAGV
UniProt Q9Y5U2: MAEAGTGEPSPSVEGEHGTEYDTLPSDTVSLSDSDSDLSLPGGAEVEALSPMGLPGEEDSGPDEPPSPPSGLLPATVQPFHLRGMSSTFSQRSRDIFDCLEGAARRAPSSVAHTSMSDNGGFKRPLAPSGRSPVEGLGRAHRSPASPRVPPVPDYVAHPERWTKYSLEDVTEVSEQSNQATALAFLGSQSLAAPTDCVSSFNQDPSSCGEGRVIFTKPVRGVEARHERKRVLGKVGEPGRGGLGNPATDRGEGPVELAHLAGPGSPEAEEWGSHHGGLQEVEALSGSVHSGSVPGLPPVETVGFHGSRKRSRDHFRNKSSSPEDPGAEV
UniProt Q9Y4C1: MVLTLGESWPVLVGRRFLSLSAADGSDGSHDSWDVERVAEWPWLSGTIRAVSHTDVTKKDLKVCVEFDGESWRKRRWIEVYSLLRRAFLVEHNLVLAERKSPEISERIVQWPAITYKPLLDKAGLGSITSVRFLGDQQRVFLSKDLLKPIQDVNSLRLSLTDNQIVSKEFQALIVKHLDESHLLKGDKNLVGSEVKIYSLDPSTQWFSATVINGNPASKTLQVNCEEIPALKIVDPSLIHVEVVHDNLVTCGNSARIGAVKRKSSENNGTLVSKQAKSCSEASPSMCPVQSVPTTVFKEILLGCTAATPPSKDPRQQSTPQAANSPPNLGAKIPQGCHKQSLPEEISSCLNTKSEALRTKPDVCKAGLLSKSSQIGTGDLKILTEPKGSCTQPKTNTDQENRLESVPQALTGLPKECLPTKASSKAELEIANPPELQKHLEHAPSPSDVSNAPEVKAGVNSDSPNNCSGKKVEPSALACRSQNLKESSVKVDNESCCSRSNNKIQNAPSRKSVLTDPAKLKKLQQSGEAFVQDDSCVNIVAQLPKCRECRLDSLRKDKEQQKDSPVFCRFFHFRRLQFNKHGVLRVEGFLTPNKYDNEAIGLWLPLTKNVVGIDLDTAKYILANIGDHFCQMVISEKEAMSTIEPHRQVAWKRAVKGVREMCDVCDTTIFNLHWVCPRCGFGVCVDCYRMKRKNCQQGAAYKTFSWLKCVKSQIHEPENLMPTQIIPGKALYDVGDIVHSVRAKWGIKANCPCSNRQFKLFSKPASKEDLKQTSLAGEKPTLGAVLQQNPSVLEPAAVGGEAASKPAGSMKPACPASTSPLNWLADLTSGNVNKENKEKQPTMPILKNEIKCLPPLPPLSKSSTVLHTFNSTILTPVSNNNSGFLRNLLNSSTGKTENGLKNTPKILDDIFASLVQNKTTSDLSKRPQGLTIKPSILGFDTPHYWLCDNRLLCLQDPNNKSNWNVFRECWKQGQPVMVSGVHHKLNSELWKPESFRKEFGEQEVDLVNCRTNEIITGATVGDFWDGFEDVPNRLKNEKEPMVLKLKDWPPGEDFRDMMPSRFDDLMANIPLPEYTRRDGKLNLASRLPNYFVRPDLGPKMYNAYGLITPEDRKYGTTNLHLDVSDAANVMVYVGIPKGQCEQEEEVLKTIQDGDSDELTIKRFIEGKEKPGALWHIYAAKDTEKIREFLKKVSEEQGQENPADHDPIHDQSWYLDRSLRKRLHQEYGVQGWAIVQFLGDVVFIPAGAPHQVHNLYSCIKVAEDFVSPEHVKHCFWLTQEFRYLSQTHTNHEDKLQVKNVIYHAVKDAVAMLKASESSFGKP

Compound: Cc1nc(Nc2ncc(C(=O)Nc3c(C)cccc3Cl)s2)cc(N2CCN(CCO)CC2)n1 [dasatinib]
Experiment: log2 fold change of tryptic peptide abundance, ligand vs vehicle (limited proteolysis) (log2 ratio); higher = more trypsin-susceptible (destabilized)
Conditions: ligand concentration: 5 uM; sample: K562 cleared lysate

Row | Target | log2 fold change
1 | TELO2 (peptide sequence: ALEGLVYR, peptide start residue: 537) (UniProt Q9Y4R8) | -0.171
2 | CTDP1 (peptide sequence: EGVPPTALFHPMPVLPK, peptide start residue: 748) (UniProt Q9Y5B0) | 0.279
3 | UTP11 (peptide sequence: ALEKNPDEFYYK, peptide start residue: 58) (UniProt Q9Y3A2) | 0.296
4 | UniProt Q9Y5B6 (peptide sequence: DRLDSMK, peptide start residue: 397) | -0.462
5 | MRPS2 (peptide sequence: HRFMEPYIFGSR, peptide start residue: 99) (UniProt Q9Y399) | 0.538
6 | KPTN (peptide sequence: GELLAATLK, peptide start residue: 39) (UniProt Q9Y664) | 0.234
7 | MRPS16 (peptide sequence: LALGGCTNRPFYR, peptide start residue: 21) (UniProt Q9Y3D3) | -0.165
8 | TLN2 (peptide sequence: KEEGTGTLKK, peptide start residue: 140) (UniProt Q9Y4G6) | -0.233
9 | UniProt Q9Y3C0 (peptide sequence: FSTVCEEK, peptide start residue: 44) | -0.117
10 | WNK2 (peptide sequence: GTFTDDLHK, peptide start residue: 2244) (UniProt Q9Y3S1) | -0.115
11 | RUVBL1 (peptide sequence: TISHVIIGLKTAK, peptide start residue: 153) (UniProt Q9Y265) | 0.533
12 | MRPS33 (peptide sequence: LFGEVTRPTNSK, peptide start residue: 18) (UniProt Q9Y291) | 0.138
13 | MRPS7 (peptide sequence: KPVEELTEEEK, peptide start residue: 53) (UniProt Q9Y2R9) | 0.438
14 | TSC22D4 (peptide sequence: VVKLPHGLGEPYR, peptide start residue: 74) (UniProt Q9Y3Q8) | -0.908
15 | IPP (peptide sequence: FCSFLQTSK, peptide start residue: 271) (UniProt Q9Y573) | 0.12
16 | UniProt Q9Y6J8 (peptide sequence: SKWEYDESHVITALR, peptide start residue: 38) | -0.233
17 | GTF3C3 (peptide sequence: YNLAVVWLR, peptide start residue: 453) (UniProt Q9Y5Q9) | 1.85
18 | UniProt Q9Y6H3 (peptide sequence: RGPAAGEQLQQQHVSCQVFPER, peptide start residue: 10) | 0.166
19 | MRPL42 (peptide sequence: VEHLEEGPMIEQLSK, peptide start residue: 100) (UniProt Q9Y6G3) | 0.471
20 | UniProt Q9Y2M0 (peptide sequence: SIDKDEEFAGSSPQSSK, peptide start residue: 169) | -0.738
21 | CAB39 (peptide sequence: LLGELLLDR, peptide start residue: 232) (UniProt Q9Y376) | -0.552
22 | TRAF6 (peptide sequence: METQSMYVSELKR, peptide start residue: 320) (UniProt Q9Y4K3) | 0.246
23 | SNX9 (peptide sequence: HPVISESEVFQQFLNFRDEK, peptide start residue: 341) (UniProt Q9Y5X1) | 0.621
24 | MRPS18B (peptide sequence: ARDHGLLIYHIPQVEPR, peptide start residue: 157) (UniProt Q9Y676) | -0.112
25 | GMEB1 (peptide sequence: STKFDLLISSAR, peptide start residue: 180) (UniProt Q9Y692) | -0.14
26 | ACOT9 (peptide sequence: SLEICHPQER, peptide start residue: 295) (UniProt Q9Y305) | -0.149
27 | TSSC4 (peptide sequence: GGLGNPATDR, peptide start residue: 241) (UniProt Q9Y5U2) | -0.221
28 | UniProt Q9Y4C1 (peptide sequence: LSLTDNQIVSK, peptide start residue: 158) | -1.03

Part of the list above in a different format:
Row	Target	log2 fold change
2	CTDP1 (peptide sequence: EGVPPTALFHPMPVLPK, peptide start residue: 748) (UniProt Q9Y5B0)	0.279
3	UTP11 (peptide sequence: ALEKNPDEFYYK, peptide start residue: 58) (UniProt Q9Y3A2)	0.296
